Article PMC8559680
No constants are given. Whether binding was seen depends on the method and setting. Some entries that bind do so weakly or less than the wild type.

The chains behind the UniProt entries cited, without tags or fusion partners.
UniProt P53538: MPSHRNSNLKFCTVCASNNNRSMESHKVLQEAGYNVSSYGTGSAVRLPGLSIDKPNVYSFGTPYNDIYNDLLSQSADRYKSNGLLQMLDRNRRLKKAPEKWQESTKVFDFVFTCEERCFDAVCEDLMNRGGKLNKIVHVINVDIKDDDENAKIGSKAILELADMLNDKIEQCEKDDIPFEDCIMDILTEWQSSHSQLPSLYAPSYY
UniProt P32598: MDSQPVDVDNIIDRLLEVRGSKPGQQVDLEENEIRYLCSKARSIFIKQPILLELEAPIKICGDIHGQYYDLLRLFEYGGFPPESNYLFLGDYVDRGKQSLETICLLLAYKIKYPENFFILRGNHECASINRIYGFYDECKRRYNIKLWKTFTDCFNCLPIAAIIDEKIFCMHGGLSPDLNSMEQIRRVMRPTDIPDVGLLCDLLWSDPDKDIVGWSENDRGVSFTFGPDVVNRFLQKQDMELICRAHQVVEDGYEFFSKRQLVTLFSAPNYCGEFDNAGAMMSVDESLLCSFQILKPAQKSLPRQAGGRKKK

Target: T1, Ref2-3C-SII (yeast) (UniProt P42073)
T1 sequence: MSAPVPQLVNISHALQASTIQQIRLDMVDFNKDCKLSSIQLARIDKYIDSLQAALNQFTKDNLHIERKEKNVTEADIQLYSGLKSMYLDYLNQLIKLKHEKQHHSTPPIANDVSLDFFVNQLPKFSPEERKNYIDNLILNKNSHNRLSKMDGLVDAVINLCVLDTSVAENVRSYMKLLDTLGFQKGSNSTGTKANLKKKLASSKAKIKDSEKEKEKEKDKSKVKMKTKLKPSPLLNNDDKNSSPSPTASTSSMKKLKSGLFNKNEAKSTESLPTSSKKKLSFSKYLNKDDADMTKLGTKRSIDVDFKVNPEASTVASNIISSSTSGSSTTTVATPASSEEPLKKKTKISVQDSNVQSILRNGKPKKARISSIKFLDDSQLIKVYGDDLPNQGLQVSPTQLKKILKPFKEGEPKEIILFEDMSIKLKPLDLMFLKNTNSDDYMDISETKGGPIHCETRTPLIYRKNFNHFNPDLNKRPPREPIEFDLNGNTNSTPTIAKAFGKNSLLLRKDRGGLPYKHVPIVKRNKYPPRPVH
Assay: co-purification (StrepTactin affinity, anion exchange, size exclusion); StrepII tag on Ref2 as bait; Sf9 cells co-infected with two baculoviruses (nuclease and polymerase modules; phosphatase module); purified complex analysed by SDS-PAGE

| binding | Substance |
| --- | --- |
| binds | Ssu72 (from UniProt P53538 1-206) (enzyme) |
| binds | Glc7 (from UniProt P32598 1-312) (enzyme) |
